In publication PMC10163288:
The list shows a part of the results.

B1: il2ra_site2_2erj_sap_13_mot_HHH_b1_03596_000000047_0001_40_56_H_._ems_3hM_1289_0001_0000200003_0000001_0_0001_af2pred_0001_af2pred (protein)
chain: SSSSDWRREVRELLRRVDEAAKRGNPEEAEELLEEAERIAEEADNRSAERFIRESKRLVRLSSSS
B2: il2ra_site2_3nfp_sap_26_mot_HHH_b2_07749_000000092_0001_22_39_H_._7f845fc392f084dc2c3019ce91433427_0001_1_af2_0001_0000300017_0000001_0_0001 (protein)
chain: SSSSSDQEFEIVVEYAKAAIALRNDPELLEQVEELEEEYREEGDPRYLELIRRILAELARSSSSS
B3: il2ra_site2_2erj_normal_mot_HHH_b2_03173_af2_000000175_0001_41_57_H_._HHH_b2_06363_0001_0000200039_0000001_0 (protein)
chain: SSSSDEYLRRLFELANLVLHLLWEGDEEEVEELLEELRKLAEEAQSEAAREVVERAEEELSSSSS
B4: il2ra_site1_1z92_normal_mot_HHH_b2_00385_000000257_0001_1_19_H_._HHH_b1_02934_0001_0000100001_0000001_0_af2pred_0001_af2pred_1 (protein)
chain: SSSSNEEELLKKLLKALENAIEKGNEKRFEKLVRFIELLAEELGDEEIERLLEELRREFHSSSSS
B5: il2ra_site1_2b5i_normal_mot_ems_3hM_3687_af2_000000248_0001_45_64_H_._HHH_b1_08112_af2_0001_0000300041_0000001_0_af2pred_dldesign_0_af2pred (protein)
chain: SSSSSPTRKEVEKLIEEAKALKAAGKRREALETLEKAKKLADENDDEELEEEIEKLVKELSSSSS
B6: il2ra_site1_3nfp_normal_mot_HHH_b1_03420_af2_000000029_0001_41_57_H_._HHH_b2_02212_af2_0001_0000200013_0000001_0 (protein)
chain: SSSSDAAQRADRLLRELLEALKEGDEELIERLREEIKRLAEEANSRLLEYLLKELEKLLGSSSSS
B7: il2ra_site2_3nfp_normal_mot_HHH_b1_06677_000000111_0001_20_36_H_._HHH_b2_06317_0001_0000200029_0000001_1 (protein)
chain: SSSDETEERVEELLREVEKLIKEGNEEEAKRVLSEAALVAAEGRDHEAFMLVNELLARLARSSSS
B8: il2ra_site1_2b5i_sap_10_mot_HHH_b1_02496_000000173_0001_1_19_H_._ems_3hM_482_af2_0001_0000700026_0000001_0_0001_af2pred_dldesign_0_af2pred (protein)
chain: SSSSDEKYEEVERLFDEATELYRAGKREEAKELLEKALELAKEAGEEKIVKELETLLKRLESSSS
B9: il2ra_site2_2erj_sap_18_mot_af86707857d369f3e1d85dcabc5f9321_0001_000000201_0001_14_29_H_._HHH_b2_03212_af2_0001_0000400015_0000001_0_0001 (protein)
chain: SSSLHETYELAVEATHLIARLLEEGNPEEAEKVLEEFLKRLEELDDPNAARLLQETFEVQKSSSS
B10: il2ra_site1_3nfp_sap_20_mot_HHH_b2_03042_af2_000000210_0001_23_39_H_._HEEHE_1101_0001_0000200023_0000001_0_0001_af2pred_0001_af2pred_1 (protein)
chain: SSEELLEELVEITVENNSPHVLRKILRALEAFLGDPEEAERLLEELIEKVLGDPEEAERLVREAK
B11: il2ra_site2_2erj_sap_30_mot_HHH_b2_03659_000000135_0001_38_56_H_._HHH_b2_07963_0001_0000300032_0000001_0_0001 (protein)
chain: SSSSSDLRELFRLASELMRAIHEGDEELFRELVEEIRRLAEETNSENAREILEWLEKHFHSSSSS
B12: il2ra_site1_3nfp_normal_mot_16934e337390fad51c35c10e6cd388ee_0001_1_000000171_0001_52_65_H_._HHH_b1_02546_af2_0001_0000100012_0000001_0 (protein)
chain: SSSSDEVKEADRIAREILELKKQGNHEEARRLLEELKEFAEERNDKILEKFVKQLEELLKSSSSS
B13: il2ra_site1_2b5i_sap_14_mot_HHH_b2_06557_000000121_0001_42_56_H_._HHH_b1_07957_0001_0000300032_0000001_1_0001_af2pred_0001_af2pred_1 (protein)
chain: SSSSDEERAEELVEDLLELAKKIDDPKRALNIVLLALATAKKKNNEELEEEVERVLEELRSSSSS
B14: il2ra_site2_2erj_normal_mot_HHH_b1_00941_000000060_0001_45_58_H_._HHH_b2_00695_0001_0000400014_0000001_0_af2pred_0001_1_af2pred_swapped (protein)
chain: SSSSSSDVEERVEELLEEAEKIKDKREAAKVLEEASKLAARNNNEELLELIDEVFRRLSSSSSSS
B15: il2ra_site2_3nfp_normal_mot_HHH_b1_03818_000000217_0001_1_20_H_._HHH_b1_07779_af2_0001_0000100024_0000001_0 (protein)
chain: SSSSDEEEERILRLLIEIYELLKKGDPEEAKELIKEAHELIRELGDEQLEKLLKIAEEAVHSSSS
B16: il2ra_site2_3nfp_normal_mot_HHH_b1_00660_af2_000000090_0001_40_57_H_._ems_3hC_866_af2_0001_0000100002_0000001_1 (protein)
chain: SEEEKEAIEELEEQLREAVERNDKELIREIIRLIAHFVHEFRDDPKAFELFALATEARELVIHAS
B17: il2ra_site2_2erj_sap_28_mot_HHH_b1_08185_000000106_0001_41_55_H_._HHH_b2_03845_af2_0001_0001200037_0000001_0_0001 (protein)
chain: SSSSDEEEERLEELVERAERLLKEGNPEEAWEVLREAATLAWELGDEEIWSRLSKLTAEVASSSS
B18: il2ra_site2_3nfp_normal_mot_HHH_b1_04781_af2_000000057_0001_1_18_H_._HHH_b2_00872_0001_0000300014_0000001_1 (protein)
chain: SSSSDKERLEEAIRMALDIAHANNDEEVFRRIEELLEEFKEEGDPRYTLEAYELALEAYRKSSSS
B19: il2ra_site1_2b5i_normal_mot_HHH_b2_04910_000000118_0001_1_19_H_._HHH_b1_02607_0001_0000100006_0000001_1_af2pred_0001_af2pred (protein)
chain: SSSSDREELKELLREANELFKNGDPEEAERVLREAIELARELGDRAALKFLEVALKIIEASSSSS
B20: il2ra_site2_3nfp_sap_22_mot_HHH_b2_05582_af2_000000159_0001_22_38_H_._HHH_b2_07708_af2_0001_0000200013_0000001_0_0001 (protein)
chain: SSSSDKAEEYLRAARELIKRAIEEGDEESARRMLEVAINAAEDNGDEEALEELQEILEKLSSSSS
B21: il2ra_site2_2erj_normal_mot_HHH_b2_01204_af2_000000056_0001_19_34_H_._HHH_b1_00244_af2_0001_0000700018_0000001_0 (protein)
chain: SSSSDEELERRIEELLKEAEELYERGNLEEVYKLLVEALHLASKNQDQEAIRLVAEVAERLSSSS
B22: il2ra_site1_2b5i_normal_mot_HHH_b1_08745_af2_000000166_0001_39_57_H_._HHH_b1_02799_0001_0000100008_0000001_0_af2pred_dldesign_0_af2pred (protein)
chain: SSSSSPEGKEVLRLLEEAEAALKAGDEAGARALLEKALEIAKKAKSNLFVKFVEAALKALESSSS
B23: il2ra_site2_2erj_sap_21_mot_HHH_b2_06331_000000250_0001_1_15_H_._72ba95a0bb9e9d4b8a33329b97f5ad30_0001_1_0001_0000200003_0000001_1_0001 (protein)
chain: SSSSSDHVERVAELMREAVELSQNGNPEEAREVLEEALEIAQEGGDPELERAVELMIEFLSSSSS
B24: il2ra_site2_3nfp_normal_mot_HHH_b1_05785_af2_000000002_0001_41_57_H_._HHH_b2_03829_0001_0000400018_0000001_0 (protein)
chain: SSSSSKHERLIRLALESLETAIREGDEEKIRLSEEYIRAAIELANDEEAQRILEELEEELSSSSS
B25: il2ra_site2_2erj_sap_18_mot_HHH_b1_05020_af2_000000060_0001_23_40_H_._HEEHE_2487_0001_0000700037_0000001_0_0001 (protein)
chain: SSSSSEELHELFELIQELMRLLHEGDEERIRELREELEKLAEKLGSPETVRMVRKQVEAQLSSSS
B26: il2ra_site1_2b5i_normal_mot_HHH_b2_04910_000000118_0001_1_19_H_._HHH_b2_01402_0001_0000100006_0000001_0_af2pred_dldesign_0_af2pred (protein)
chain: SSSSNLEEARRLFLEADRLFQAGKKEEALETLEKAKKLAKEAGATLLTKMIEIAIKNLKENSSSS
B27: il2ra_site2_3nfp_normal_mot_HHH_b2_08245_000000023_0001_41_55_H_._HHH_b1_05961_0001_0000500029_0000001_0_af2pred_0001_af2pred (protein)
chain: SSSSSSDVEEEVEELLEEAKKADDELRRKLLLLEARRLAEEREDEELRRLVEEVAQELSSSSSSS
B28: il2ra_site2_3nfp_normal_mot_HHH_b1_00660_af2_000000090_0001_40_57_H_._HHH_b2_01268_0001_0000600053_0000001_0_af2pred_0001_af2pred (protein)
chain: SSSSSDEEEEEVEELLEEAKRIPDPEERERVLHRAALIAVEANDFELFALVNRVLEKLTSSSSSS
B29: il2ra_site1_1z92_sap_17_mot_HHH_b1_05516_af2_000000202_0001_21_38_H_._HHH_b1_00975_0001_0000200011_0000001_0_0001_af2pred_0001_af2pred_1 (protein)
chain: SEELLESVRRFAGGDPEKILRILLRIAKTQGELSPEQLEELEEKIREAIEKNDPRVEELLKELAN
B30: il2ra_site2_3nfp_sap_11_mot_HHH_b2_06897_000000042_0001_40_57_H_._HHH_b2_07419_0001_0000200035_0000001_0_0001 (protein)
chain: SSSSSREWARAAARTMLEALERNNDEENFEELREVVEEVEKEGDPRLVLKLYALLAEIYKKSSSS
B31: il2ra_site1_3nfp_normal_mot_HHH_b1_02235_000000281_0001_38_56_H_._70e64182809fe3cc67913f5218a30a03_0001_af2_0001_0000600025_0000001_0_af2pred_0001_af2pred_swapp … (protein)
chain: SREVSKLIKELARRATTPEQLRLLEEVAQLLAKNLEEALELLRELVKRYGDPLLEELLELLEELR
B32: il2ra_site1_3nfp_normal_mot_HHH_b1_03716_af2_000000235_0001_20_37_H_._HHH_b1_02112_0001_0000300016_0000001_1_af2pred_0001_af2pred_1 (protein)
chain: SSSSSDLRELLKEVEELLERIAKTTDPEERERLLERLEELAEENNDPTLKLVVELLRRALSSSSS
B33: il2ra_site1_1z92_sap_24_mot_HHH_b1_04917_000000121_0001_22_38_H_._HHH_b1_01483_af2_0001_0000600028_0000001_0_0001_af2pred_dldesign_0_af2pred (protein)
chain: SSSSSSEEELYDKVEELFKEASKLKDKEKRKKLLEEALELAKKANAPLLVKDIETYLKLLSSSSS
B34: il2ra_site2_2erj_normal_mot_HHH_b1_05749_af2_000000058_0001_23_39_H_._HHH_b2_00323_0001_0000100013_0000001_1 (protein)
chain: SSSSSEIREEVERLLEEARELLEEGDLEEAFRVADEALHLASEARDQELLELILEFLEEHSSSSS
B35: il2ra_site2_3nfp_sap_22_mot_ems_3hM_1278_af2_000000151_0001_43_60_H_._HHH_b2_04893_0001_0000100005_0000001_0_0001 (protein)
chain: SSSSSEELEELIEQARELLEEGDKYEAAQVVLRASRLALELNDPEAARRILELFEEIQRTSSSSS
B36: il2ra_site1_3nfp_normal_mot_HHH_b1_04931_000000291_0001_38_56_H_._HHH_b2_05360_0001_0000400014_0000001_0_af2pred_0001_af2pred_1 (protein)
chain: SSSSDVEEEIEEFLERIEKAAKDGDPKEADELVREAAKLALQNKDEEALRLLWELLRELSGSSSS
B37: il2ra_site2_2erj_sap_28_mot_ems_3hC_1315_af2_000000245_0001_45_63_H_._HHH_b2_04234_af2_0001_0000200007_0000001_0_0001 (protein)
chain: SSSSDEEEERVRELLEQAEELLERGNPEEAFRVLVEALQVASESNDPELEQLVFEAFERLVSSSS

biological target: il2ra, P01589; assay: yeast display titration

Apparent Kd, inactive:
B1 no binding seen
B2 no binding seen
B3 no binding seen
B4 no binding seen
B5 no binding seen
B6 no binding seen
B7 no binding seen
B8 no binding seen
B9 no binding seen
B10 no binding seen
B11 no binding seen
B12 no binding seen
B13 no binding seen
B14 no binding seen
B15 no binding seen
B16 no binding seen
B17 no binding seen
B18 no binding seen
B19 no binding seen
B20 no binding seen
B21 no binding seen
B22 no binding seen
B23 no binding seen
B24 no binding seen
B25 no binding seen
B26 no binding seen
B27 no binding seen
B28 no binding seen
B29 no binding seen
B30 no binding seen
B31 no binding seen
B32 no binding seen
B33 no binding seen
B34 no binding seen
B35 no binding seen
B36 no binding seen
B37 no binding seen

Retrieved one by one from the list above, 2 records:
Apparent Kd, inactive:
B26 no binding seen
B29 no binding seen
